± gives the standard deviation of the averaged measurements. Small differences around the control level are noise.
Tests used:
Test in all cases: level (log10 ratio to DMSO vehicle control); higher = higher biomarker level / cell amount than vehicle control
[1] = compound: O=C(O)CCC(F)(F)C(F)(F)C(F)(F)F [3:3 Fluorotelomer carboxylic acid] (in DMSO); settings: 2200 nM
Procedure: (§1)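 BioMAP Diversity Plus panel of 12 human primary cell co-culture systems (3C, 4H, LPS, SAg, BT, BF4T, BE3C, CASM3C, HDF3CGF, KF3CT, MyoF, Mphg). Compounds were added 1 h before stimulation and left for 24 h (MyoF 48 h; BT 72 h for soluble read-outs or 6 d for IgG). Biomarkers were read by ELISA, cytotoxicity by SRB, PBMC viability and proliferation by Alamar Blue. Each well value was divided by the mean of 8 DMSO control wells on the same plate and log10 transformed; duplicate blinded samples were tested at 4 concentrations.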

[2] = compound: O=C(O)C(F)(F)C(F)(F)C(F)(F)C(=O)O [Hexafluoroglutaric acid] (in DMSO)
Procedure: as §1

[3] = compound: O=C(O)C(F)(OC(F)(F)C(F)(OC(F)(F)C(F)(OC(F)(F)C(F)(F)C(F)(F)F)C(F)(F)F)C(F)(F)F)C(F)(F)F [Perfluoro-(2,5,8-trimethyl-3,6,9-trioxadodecanoic)acid] (in DMSO); settings: 370 nM
Procedure: as §1

[4] = compound: OCC(F)(F)C(F)(F)C(F)(F)C(F)F [1H,1H,5H-Perfluoropentanol] (in DMSO); settings: 2200 nM
Procedure: as §1

[5] = compound: FC(F)(F)C(F)(F)CNCC(F)(F)C(F)(F)F [Bis(1H,1H-perfluoropropyl)amine] (in DMSO); settings: 2200 nM
Procedure: as §1

[6] = compound: O=C(O)C(F)(F)C(F)(F)C(F)(F)C(F)(F)C(F)(F)F [Perfluorohexanoic acid] (in DMSO)
Procedure: as §1

[7] = compound: O=S(=O)(O)C(F)(F)C(F)(F)C(F)(F)C(F)(F)F [Perfluorobutanesulfonic acid] (in DMSO)
Procedure: as §1

[8] = compound: O=C(O)C(F)(OC(F)(F)C(F)(F)C(F)(F)F)C(F)(F)F [Ammonium perfluoro-2-methyl-3-oxahexanoate] (in Water)
Procedure: as §1

[9] = compound: FC(F)(F)COC(OCC(F)(F)F)OCC(F)(F)F [tris(Trifluoroethoxy)methane] (in DMSO); settings: 2200 nM
Procedure: as §1

[10] = compound: O=C(O)C(F)(F)C(F)(F)C(F)(F)OC(F)(C(F)(F)F)C(F)(F)F [Perfluoro-4-isopropoxybutanoic acid] (in DMSO); settings: 2200 nM
Procedure: as §1

[11] = compound: OCC(F)(F)OC(F)(F)C(F)(F)OC(F)(F)CO [1H,1H,8H,8H-Perfluoro-3,6-dioxaoctane-1,8-diol] (in DMSO); settings: 2200 nM
Procedure: as §1

[12] = compound: OCC(F)(F)C(F)(F)C(F)(F)C(F)(F)C(F)(F)C(F)(F)F [6:1 Fluorotelomer alcohol] (in DMSO); settings: 2200 nM
Procedure: as §1

[13] = compound: FC(F)(F)C(F)(F)C(F)(F)C(F)(F)CCI [1H,1H,2H,2H-Perfluorohexyl iodide] (in DMSO); settings: 2200 nM
Procedure: as §1

[14] = compound: C=C(C)C(=O)OCCC(F)(F)C(F)(F)C(F)(F)C(F)(F)C(F)(F)C(F)(F)F [6:2 Fluorotelomer methacrylate] (in DMSO); settings: 2200 nM
Procedure: as §1

[15] = compound: CNS(=O)(=O)C(F)(F)C(F)(F)C(F)(F)C(F)(F)C(F)(F)C(F)(F)C(F)(F)C(F)(F)F [N-Methylperfluorooctanesulfonamide] (in DMSO); settings: 2200 nM
Procedure: as §1

[16] = compound: OCCCC(F)(F)C(F)(F)C(F)(F)C(F)(F)C(F)(F)C(F)(F)C(F)(F)C(F)(F)F [3-(Perfluorooctyl)propanol] (in DMSO); settings: 2200 nM
Procedure: as §1

[17] = compound: OCC(F)(F)C(F)(F)C(F)(F)C(F)(F)C(F)(F)C(F)(F)CO [1H,1H,8H,8H-Perfluorooctane-1,8-diol] (in DMSO); settings: 2200 nM
Procedure: as §1

Test System: LPS:CD62E/E-Selectin
- level (log10) [1]: -0.007 ± 0.023
- level (log10) ([2]; 2200 nM): 0.0065 ± 0.043
- level (log10) ([2]; 6700 nM): -0.003 ± 0.035
- level (log10) ([2]; 20000 nM): 0.0045 ± 0.03
- level (log10) ([2]; 60000 nM): 0.004 ± 0.033
- level (log10) [3]: -0.006 ± 0.0057
- level (log10) [4]: -0.0025 ± 0.0064
- level (log10) [5]: 0.011 ± 0.0028
- level (log10) ([6]; 2200 nM): -0.0075 ± 0.00071
- level (log10) ([6]; 6700 nM): -0.01 ± 0.0042
- level (log10) ([6]; 20000 nM): -0.0065 ± 0.012
- level (log10) ([6]; 60000 nM): -0.003 ± 0.0028
- level (log10) ([7]; 2200 nM): 0.0245 ± 0.018
- level (log10) ([7]; 6700 nM): 0.007 ± 0.0071
- level (log10) ([7]; 20000 nM): 0.0255 ± 0.0092
- level (log10) ([7]; 60000 nM): 0.028 ± 0.023
- level (log10) ([8]; 2200 nM): 0.017 ± 0.031
- level (log10) ([8]; 6700 nM): -0.0115 ± 0.0078
- level (log10) ([8]; 20000 nM): -0.005 ± 0.016
- level (log10) ([8]; 60000 nM): -0.004 ± 0.0085
- level (log10) [9]: -0.0065 ± 0.005
- level (log10) [10]: 0.004 ± 0.045
- level (log10) [11]: -0.013 ± 0.018
- level (log10) [12]: 0.008 ± 0.0057
- level (log10) [13]: 0.0105 ± 0.028
- level (log10) [14]: 0.008 ± 0.016
- level (log10) [15]: -0.0035 ± 0.042
- level (log10) [16]: -0.0285 ± 0.012
- level (log10) [17]: -0.034 ± 0.024

Test System: LPS:CD69
- level (log10) [1]: -0.0225 ± 0.056
- level (log10) ([2]; 2200 nM): -0.002 ± 0.034
- level (log10) ([2]; 6700 nM): -0.003 ± 0.011
- level (log10) ([2]; 20000 nM): -0.014 ± 0.0099
- level (log10) ([2]; 60000 nM): 0.0075 ± 0.0021
- level (log10) [3]: -0.0085 ± 0.0092
- level (log10) [4]: 0.01 ± 0.034
- level (log10) [5]: 0.044 ± 0.02
- level (log10) ([6]; 2200 nM): 0.01
- level (log10) ([6]; 6700 nM): 0.0025 ± 0.0078
- level (log10) ([6]; 20000 nM): -0.0165 ± 0.0021
- level (log10) ([6]; 60000 nM): -0.0295 ± 0.013
- level (log10) ([7]; 2200 nM): 0.039 ± 0.055
- level (log10) ([7]; 6700 nM): -0.0405 ± 0.061
- level (log10) ([7]; 20000 nM): 0.0155 ± 0.05
- level (log10) ([7]; 60000 nM): 0.0825 ± 0.023
- level (log10) ([8]; 2200 nM): 0.008 ± 0.011
- level (log10) ([8]; 6700 nM): 0.03 ± 0.0028
- level (log10) ([8]; 20000 nM): 0 ± 0.028
- level (log10) ([8]; 60000 nM): -0.0315 ± 0.04
- level (log10) [9]: -0.024 ± 0.064
- level (log10) [10]: 0.0155 ± 0.037
- level (log10) [11]: 0.028 ± 0.042
- level (log10) [12]: -0.008 ± 0.0042
- level (log10) [13]: 0.0025 ± 0.019
- level (log10) [14]: -0.0645 ± 0.0064
- level (log10) [15]: -0.032 ± 0.0071
- level (log10) [16]: -0.0015 ± 0.021
- level (log10) [17]: 0.0115 ± 0.00071

Test System: LPS:CD106/VCAM-1
- level (log10) [1]: -0.008 ± 0.0057
- level (log10) ([2]; 2200 nM): -0.002 ± 0.027
- level (log10) ([2]; 6700 nM): -0.006 ± 0.016
- level (log10) ([2]; 20000 nM): -0.015 ± 0.024
- level (log10) ([2]; 60000 nM): -0.005 ± 0.0071
- level (log10) [3]: -0.004 ± 0.0057
- level (log10) [4]: -0.003 ± 0.0071
- level (log10) [5]: -0.0105 ± 0.021
- level (log10) ([6]; 2200 nM): -0.0075 ± 0.00071
- level (log10) ([6]; 6700 nM): -0.0025 ± 0.0035
- level (log10) ([6]; 20000 nM): -0.0055 ± 0.0035
- level (log10) ([6]; 60000 nM): 0.008 ± 0.0042
- level (log10) ([7]; 2200 nM): 0.01 ± 0.024
- level (log10) ([7]; 6700 nM): -0.0055 ± 0.012
- level (log10) ([7]; 20000 nM): 0.0175 ± 0.011
- level (log10) ([7]; 60000 nM): 0.03 ± 0.0014
- level (log10) ([8]; 2200 nM): -0.018 ± 0.013
- level (log10) ([8]; 6700 nM): -0.0285 ± 0.016
- level (log10) ([8]; 20000 nM): -0.016 ± 0.0071
- level (log10) ([8]; 60000 nM): -0.0195 ± 0.011
- level (log10) [9]: -0.0095 ± 0.029
- level (log10) [10]: -0.004 ± 0.024
- level (log10) [11]: 0.002 ± 0.011
- level (log10) [12]: -0.0295 ± 0.00071
- level (log10) [13]: -0.0085 ± 0.00071
- level (log10) [14]: 0.011 ± 0.0071
- level (log10) [15]: 0.0055 ± 0.018
- level (log10) [16]: -0.0045 ± 0.018
- level (log10) [17]: 0.0015 ± 0.0021

Test System: LPS:CD141/Thrombomodulin
- level (log10) [1]: -0.0095 ± 0.03
- level (log10) ([2]; 2200 nM): -0.0185 ± 0.005
- level (log10) ([2]; 6700 nM): 0.002 ± 0.0071
- level (log10) ([2]; 20000 nM): -0.022 ± 0.021
- level (log10) ([2]; 60000 nM): -0.0355 ± 0.032
- level (log10) [3]: -0.005 ± 0.0057
- level (log10) [4]: -0.0215 ± 0.026
- level (log10) [5]: 0.048 ± 0.093
- level (log10) ([6]; 2200 nM): 0.0135 ± 0.0078
- level (log10) ([6]; 6700 nM): 0.0085 ± 0.012
- level (log10) ([6]; 20000 nM): 0.0065 ± 0.026
- level (log10) ([6]; 60000 nM): 0.007 ± 0.017
- level (log10) ([7]; 2200 nM): -0.02 ± 0.02
- level (log10) ([7]; 6700 nM): -0.048 ± 0.0085
- level (log10) ([7]; 20000 nM): -0.0045 ± 0.015
- level (log10) ([7]; 60000 nM): -0.024 ± 0.031
- level (log10) ([8]; 2200 nM): -0.0035 ± 0.0092
- level (log10) ([8]; 6700 nM): -0.013 ± 0.031
- level (log10) ([8]; 20000 nM): -0.0025 ± 0.0092
- level (log10) ([8]; 60000 nM): -0.036 ± 0.028
- level (log10) [9]: -0.044 ± 0.017
- level (log10) [10]: 0.005 ± 0.028
- level (log10) [11]: 0.026 ± 0.0099
- level (log10) [12]: -0.002 ± 0.0071
- level (log10) [13]: 0.02 ± 0.021
- level (log10) [14]: -0.0055 ± 0.0021
- level (log10) [15]: -0.01 ± 0.0014
- level (log10) [16]: -0.0045 ± 0.025
- level (log10) [17]: 0.004 ± 0.0057
